42 compounds from PubChem BioAssay AID2685 (National Center for Advancing Translational Sciences (NCATS), 2010) can be followed below.

This test in a line: qHTS Assay for Lipid Storage Modulators in Drosophila S3 Cells.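 On cell number change: cells counted by Cell Tracker Red CMTPX staining in the red channel.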 As to conditions: BODIPY lipid droplet fluorescence, 18-24 h; for cell number change: measured here: cell count max response, cells fed with added oleic acid. A digest of the protocol:
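Drosophila S3 cells loaded with oleic acid (400 uM, as added) and compounds at several concentrations; lipid droplets imaged by 488-nm laser-scanning cytometry, 500–530 nm intensity and object ratio to cell channel. Percent activity normalized to 20 uM Triacsin C.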
(Quantitative high-throughput screening tests each substance at several concentrations.)

[1] abbreviates: measured here: lipid fluorescence (Fed channel) AC50, cells fed with added oleic acid.
Where [2] appears, read: measured here: cell number channel AC50, cells fed with added oleic acid.

Some of the results follow. These are further read-outs of the screen, such as a control signal, another cell line or another target. No call is given for them. The list favours compounds with an active or inconclusive main result. The note in brackets gives the kind of curve behind each potency; many fits are weak.

Usually AC50 stands for the concentration at which the activity in the assay is half-maximal. A low value points to greater potency.

For the compound `COc1ccc(S(=O)(=O)N(C)Cc2ccc3c(c2)OCCO3)cc1`, the cell number change was 1.17%. Further, the AC50 under setting [1] is 14.6 µM [rising, partial curve, poor fit].

On to `O=Cc1ccccc1-n1cncn1`, for which the cell number change is 5.85%. Further, the AC50 under setting [2] is 0.366 µM [falling, single point]. Under setting [1], the AC50 was 2.31 µM [falling, single point].

For the compound `CCCCOc1ccc2ccccc2c1C=O`, under setting [2], the AC50 is 2.06 µM [rising, single point].

`CCCn1c(SCC(=O)Nc2ccc(Cl)cc2)n[nH]c1=O`: the cell number change was -2.28%. The AC50 under setting [2] is 6.51 µM [rising, single point].

Turning to `COC(=O)/C=C1/S/C(=N/NC(=O)c2ccc(OC)cc2)NC1=O`, the cell number change was 3.36%.

As for `S=C1NC2(CCS1)Oc1ccccc1C1CC(c3ccccc3)=NN12` (stereo unspecified), the cell number change was determined as 5.56%.

As for `CN(C)CCCN(C(=O)c1ccc(S(=O)(=O)N2CCCCCC2)cc1)c1nc2cc3c(cc2s1)OCCO3`, the cell number change was found to be 41.1%. For the same compound, the AC50 under setting [2] was 7.31 µM [rising, partial curve, poor fit].

Regarding `CC1CCCCN1CCNC(=O)c1ccc2c(=O)n(CCc3ccccc3)c(=O)[nH]c2c1` (stereo unspecified), the cell number change was determined as 22.6%.

As to `CNC(=S)N(CCc1c(C)[nH]c2ccc(Cl)cc12)Cc1cccs1`, the cell number change turned out to be 14.6%.

As for `Oc1[nH]c2ccccc2c1/C=N/N1CCCCC1`, the cell number change is -25%. The AC50 under setting [1] is 29.1 µM [falling, single point].

As to `O=C(CNC(=O)c1ccccc1Br)N/N=C/c1ccco1`, the cell number change amounted to 45.8%. Besides, the AC50 under setting [2] is 0.366 µM [rising, full curve]. The AC50 under setting [1] is 29.1 µM [falling, single point].

Take `CC(C)(CNC(=O)c1ccc(S(=O)(=O)Nc2ccc(Cl)cc2)cc1)N1CCOCC1`: the cell number change was -16.2%. Further, the AC50 under setting [1] was 0.651 µM [falling, single point].

`Cc1noc(NS(=O)(=O)c2ccc(NC(=O)c3ccc(N4C(=O)c5ccccc5C4=O)cc3)cc2)c1C`: the cell number change was -14.9%. Under setting [2], the concentration at half-maximal activity (AC50) was 0.291 µM [falling, partial curve, poor fit].

Take `O=C(CN(C(=O)CNC(=O)c1ccco1)c1ccc2c(c1)OCCO2)NC1CCCCC1`: the cell number change stood at 34%. For the same compound, the AC50 under setting [2] is 29.1 µM [rising, partial curve, poor fit].

For `O=C(C1CCN(S(=O)(=O)c2cccnc2)CC1)N1CCN(C2CCCC2)CC1`, the cell number change was -16.4%. Further, the AC50 under setting [1] was 0.291 µM [falling, full curve, poor fit].

Turning to `O=C(C1CCC1)N1CCN(c2cccc(C(F)(F)F)c2)CC1`, the cell number change is -6.91%. For the same compound, the AC50 under setting [1] is 29.1 µM [falling, single point].

For the compound `O=C1CCCC2=C1C1(CCCC1)N=C(Nc1nc3ccccc3o1)N2`, the cell number change was -11.8%. In addition, the AC50 under setting [1] was 1.03 µM [rising, single point].

Turning to `CCOc1ccc(CCNC(=O)CSc2cc(=O)n(C)c3ccccc23)cc1OCC`, the cell number change is -19.3%.

As to `O=C(c1ccc(Cl)c(S(=O)(=O)Nc2ccc(F)cc2)c1)N1CCN(c2ccccn2)CC1`, the cell number change is -35.3%. Moreover, the AC50 under setting [2] was 11.6 µM [falling, partial curve]. Moreover, the AC50 under setting [1] is 14.6 µM [falling, partial curve].

As for `COc1ccc(CCN(C)C(=O)c2cc(S(=O)(=O)N3CCCCC3)ccc2Cl)cc1OC`, the cell number change is -16.7%. For the same compound, the AC50 under setting [1] is 6.51 µM [rising, single point].

`CN(C)CCNC(=O)c1cc2c(s1)-c1ccc(Cl)cc1SC2`: the cell number change was -97.2%. The half-maximal activity concentration (AC50) under setting [2] was 29.1 µM [falling, single point]. The concentration at half-maximal activity (AC50) under setting [1] was 20.6 µM [falling, single point].

Consider `CC(=O)Nc1ccc(S(=O)(=O)N2CCc3c(Cl)cccc3C2)cc1`, for which the cell number change was determined as 2.17%.

Take `CCC1Oc2ccccc2N(CC(=O)NCCCN2CCN(CC)CC2)C1=O` (stereo unspecified): the AC50 under setting [1] was 1.64 µM [rising, full curve, poor fit].

`O=c1[nH]c(C2CCN(S(=O)(=O)/C=C/c3ccccc3)CC2)nc2c1nnn2Cc1ccccc1`: the cell number change is -1.32%.

For `CCOc1c(CNCCNC(=O)c2nonc2N)cccc1OC`, the cell number change was 7.32%.

Regarding `CCN(CC)S(=O)(=O)c1ccc2[nH]c(=O)cc(C(=O)NCC(c3ccco3)N3CCCC3)c2c1` (stereo unspecified), the cell number change was -14%. The AC50 under setting [1] was 3.26 µM [falling, full curve, poor fit].

`CCc1cc2cc(C)ccc2nc1SCC(=O)NNC(=O)c1ccco1`: the cell number change came out at 169%. Further, the AC50 under setting [2] was 29.1 µM [rising, single point].

For `CCN(CC)c1ccc(/C=N/N2CCN(c3ccccc3OC)CC2)cc1`, the cell number change was -32.8%. In addition, the AC50 under setting [2] was 11.6 µM [falling, single point]. Besides, under setting [1], the half-maximal activity concentration (AC50) was 29.1 µM [falling, single point].

In the case of `N#Cc1c(N)nc2c(c1N)CC(CCl)O2` (stereo unspecified), the cell number change was determined as 3.21%.

`CCCCOc1ccc(C(=O)N2CCN(c3ncccn3)CC2)cc1`: the cell number change amounted to 23.4%. Besides, under setting [1], the AC50 was 2.91 µM [rising, full curve].

Regarding `CCN1C(=S)SC(=O)C1=C1C=C(C)OC(C)=C1`, the cell number change was -0.506%. In addition, under setting [1], the AC50 is 0.00461 µM [falling, full curve, poor fit].

For `CC(=O)c1cn(C(=O)c2ccc(Cl)cc2)c2ccccc12`, the cell number change is -24.8%. The AC50 under setting [1] is 6.51 µM [falling, single point].

Consider `O=C1CC(NCc2ccc(F)cc2)C(=O)N1c1ccccc1` (stereo unspecified), for which the cell number change stood at 21.3%.

Turning to `Cc1cc(C)c(C(=O)O)c(CC(C)(C)C(=O)O)c1`, the cell number change was -39%. In addition, under setting [2], the half-maximal activity concentration (AC50) is 29.1 µM [falling, single point]. Also, the half-maximal activity concentration (AC50) under setting [1] is 29.1 µM [falling, single point].

Take `Cc1nn(-c2ccccc2)c2sc(C(=O)NC3CCCCC3)cc12`: the cell number change was -5.07%. The concentration at half-maximal activity (AC50) under setting [1] was 1.64 µM [rising, partial curve].

On to `CCOC(=O)Cc1nnc(NC(=O)CSc2nnc3c4ccccc4n(C)c3n2)s1`, for which the cell number change was -20.4%.

In the case of `CN(C(=O)CSc1nc2ccc(Br)cc2c(=O)n1Cc1ccco1)C1CCS(=O)(=O)C1` (stereo unspecified), the cell number change was -41.2%. In addition, the AC50 under setting [2] was 16.4 µM [falling, single point]. Further, under setting [1], the AC50 was 18.4 µM [falling, single point].

Regarding `COC(=O)C1CCC(=S)N1C(=O)c1ccccc1` (stereo unspecified), the cell number change was determined as 4.11%.

For the compound `Cc1ccc(N=C2SCCCN2C(=O)c2ccco2)cc1Cl`, the cell number change amounted to 9.54%. For the same compound, the AC50 under setting [1] was 5.8 µM [falling, single point].

In the case of `Cn1nc(-c2ccc(Cl)cc2)c2cc(C(=O)NCC3CCCO3)sc21` (stereo unspecified), the cell number change was determined as 9.37%.

In the case of `CC(CCc1ccccc1)NC(=O)CCN1N=C(c2ccccc2)CCC1=O` (stereo unspecified), the cell number change worked out at 7.45%. For the same compound, the half-maximal activity concentration (AC50) under setting [2] was 0.461 µM [falling, single point].

Regarding `CC1=CN2C(=NC(=O)CC2(C)C(=O)N(CC(=O)NC2CCCC2)Cc2ccc(Cl)cc2)C=C1` (stereo unspecified), the cell number change was -14.3%. Further, the concentration at half-maximal activity (AC50) under setting [1] was 0.206 µM [rising, single point].
